Results from PMC4703070.

Chains of the proteins cited; added tags and fusions are not shown. Lines headed by an entry give the natural chain unless they say otherwise; changes in a name come on top.
UniProt P10443: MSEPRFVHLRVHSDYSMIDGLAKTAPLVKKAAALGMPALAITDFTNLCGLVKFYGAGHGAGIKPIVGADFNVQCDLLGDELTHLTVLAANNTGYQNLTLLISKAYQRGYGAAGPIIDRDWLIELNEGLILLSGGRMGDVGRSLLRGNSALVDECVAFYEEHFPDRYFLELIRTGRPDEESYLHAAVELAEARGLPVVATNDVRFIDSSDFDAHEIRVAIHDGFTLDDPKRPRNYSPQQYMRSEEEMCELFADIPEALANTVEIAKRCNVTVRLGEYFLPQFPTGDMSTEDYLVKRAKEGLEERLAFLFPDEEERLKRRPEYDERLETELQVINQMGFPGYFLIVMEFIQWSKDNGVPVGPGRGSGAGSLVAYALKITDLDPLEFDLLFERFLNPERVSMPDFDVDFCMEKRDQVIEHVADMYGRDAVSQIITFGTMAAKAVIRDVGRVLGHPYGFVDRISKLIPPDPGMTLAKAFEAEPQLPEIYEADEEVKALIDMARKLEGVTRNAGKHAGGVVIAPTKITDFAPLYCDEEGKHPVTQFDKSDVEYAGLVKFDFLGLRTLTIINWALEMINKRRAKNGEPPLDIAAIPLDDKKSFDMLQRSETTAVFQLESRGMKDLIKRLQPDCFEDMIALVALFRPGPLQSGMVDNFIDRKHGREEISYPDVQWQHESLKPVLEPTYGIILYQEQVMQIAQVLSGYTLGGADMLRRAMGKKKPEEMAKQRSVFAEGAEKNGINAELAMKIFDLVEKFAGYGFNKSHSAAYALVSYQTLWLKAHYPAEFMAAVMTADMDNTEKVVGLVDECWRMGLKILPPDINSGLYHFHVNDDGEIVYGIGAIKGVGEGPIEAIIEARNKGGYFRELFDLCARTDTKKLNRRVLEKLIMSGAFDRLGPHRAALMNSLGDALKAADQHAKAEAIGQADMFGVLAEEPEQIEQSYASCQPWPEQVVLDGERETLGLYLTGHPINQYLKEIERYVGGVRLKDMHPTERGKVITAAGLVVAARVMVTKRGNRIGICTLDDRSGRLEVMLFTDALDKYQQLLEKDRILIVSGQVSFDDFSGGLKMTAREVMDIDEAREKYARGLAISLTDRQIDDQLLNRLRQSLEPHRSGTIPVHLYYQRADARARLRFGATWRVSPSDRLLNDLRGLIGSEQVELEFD

Target: Pol IIIα (alone, EMSA) (Escherichia coli) (UniProt P10443)
Assay: EMSA
Conditions: 2.5 μM protein, 5 nM DNA, text: surprisingly low affinity; phosphorothioate at 3' terminal bond (primer; strand implied); EMSA: 20 mM Tris pH 7.5, 4% glycerol, 5 mM DTT, 40 μg/ml BSA, 40 mM K glutamate, 10 min room temperature, native 6% gel; recombinant protein; label: 6-FAM at 5' end of primer strand

“TCAGGAGTCCTTCGTCCTAGTACTACTCC / GGAGTAGTACTAGGACGAAGGACTC [25 bp primer-template with 4 nt overhang (EMSA)]”: no binding.

The exact form of at least one protein or probe is not confirmed. A negative result means that nothing was seen under these conditions.
